For at least one entry, the source does not settle the construct or the ends of the probe.
Test system: His-GacA (Pseudomonas mosselii 923)
Assay: EMSA
Conditions: EMSA on 4.5% nondenaturing polyacrylamide gel, Cy5 detection; binding buffer, pH and temperature not given; recombinant protein; protein details: His (pET28a, NdeI/XhoI)

| Sequence | binding result |
| --- | --- |
| GTCGTGTAAGCCAAAGCTTACAAAAGCAGTCCTTGCACAA (double strand) [PrsmY probe (rsmY promoter, 40 bp)] | binds |
| GACGAGTAAGCGAATGCTTACACGCGATGCTACGAGGGTG (double strand) [PrsmZ probe (rsmZ promoter, 40 bp)] | binds |

Source: article PMC9911603
